# Where a name gives a salt, the structure may show the parent alone. Some of the results follow. Many values rest on one well or one pass, so single values are uncertain.
# Tested on: M229R (matched melanoma line resistant to BRAF inhibitors)
# Assay: reduction in cell viability relative to untreated/vehicle; higher = more growth inhibition
# Settings: 200 nM; 72 h
row,SMILES,reduction in cell viability
1,C=CCNC1=C2C[C@@H](C)C[C@H](OC)[C@H](O)[C@@H](C)/C=C(\C)[C@H](OC(N)=O)[C@@H](OC)/C=C\C=C(/C)C(=O)NC(=CC1=O)C2=O [Tanespimycin],< 0%
2,"CCCS(=O)(=O)Nc1ccc(F)c(C(=O)c2c[nH]c3ncc(-c4ccc(Cl)cc4)cc23)c1F [Vemurafenib (PLX4032, RG7204)]",6.65%
3,Cc1cn2c(-c3cn[nH]c3)cnc2c(Nc2ccc(C(=O)N3CCNCC3)cc2F)n1,< 0%
4,CCc1cc(/C(C)=N/OCc2ccc(C3CCCCC3)c(C(F)(F)F)c2)ccc1CN1CC(C(=O)O)C1,< 0%
5,CCn1cc(C(=O)O)c(=O)c2cc(F)c(N3CCNC(C)C3)c(F)c21 (stereo not drawn) [Lomefloxacin hydrochloride],< 0%
6,Cc1c(CN2CCN(C(=O)[C@H](C)O)CC2)sc2c(N3CCOCC3)nc(-c3cnc(N)nc3)nc12,41.9%
7,N=C(N)c1ccc(OCCCCCOc2ccc(C(=N)N)cc2)cc1 [Pentamidine isethionate],< 0%
8,CC(S)C(=O)NCC(=O)O (stereo not drawn) [Tiopronin],< 0%
9,Nc1nc2[nH]cnc2c(=S)[nH]1 [Tioguanine],< 0%
10,O=c1c(O)c(-c2cc(O)c(O)c(O)c2)oc2cc(O)cc(O)c12 [Myricetin],< 0%
11,COc1ccccc1N1CCN(CC(O)COc2cccc3ccccc23)CC1 (stereo not drawn) [Naftopidil],< 0%
12,CN1CC[C@H](c2c(O)cc(O)c3c(=O)cc(-c4ccccc4Cl)oc23)[C@H](O)C1 [Flavopiridol],61%
13,COc1cc(OC)cc(-c2ccc3ncc4ccc(=O)n(-c5ccc(N6CCNCC6)c(C(F)(F)F)c5)c4c3c2)c1,14.4%

# Shown as tab-separated lines: 2 of the compounds above
row	SMILES	reduction in cell viability
12	CN1CC[C@H](c2c(O)cc(O)c3c(=O)cc(-c4ccccc4Cl)oc23)[C@H](O)C1 [Flavopiridol]	61%
13	COc1cc(OC)cc(-c2ccc3ncc4ccc(=O)n(-c5ccc(N6CCNCC6)c(C(F)(F)F)c5)c4c3c2)c1	14.4%
